From the supplement of paper PMC5949888
± gives the standard deviation of the averaged measurements. Most values lie at the floor of the assay. Slopes are relative: functional sequences can read slightly below zero.

tested on: Saccharomyces cerevisiae PS128 hsf1 delta, HSF1(1-493) fusion; test: growth estimate (transactivation domain function in HSF1 fusion, heat-shock survival) (a.u. (slope of normalised read count over time)); higher = stronger growth at 37°C, i.e. more transactivation activity; conditions: library: random library

Substance | growth estimate
NLRADVAPTVKTAWCSRERG | < -0.25
NLRHWQAERGICRGLCLTVC | < -0.25
NLRLETGRPEQVGSLASTRA | < -0.25
NLS | -0.238 ± 0.017
NLSCADVICLKFESPAPLFL | < -0.25
NLSTITMFSC | 0.391
NLTCSLEVLTRDKVDGFFQQ | < -0.25
NLTMR | < -0.25
NLVIDVGTAKHFR | < -0.25
NLVLVVGRLSRRY | < -0.25
NLVVGGCDGHQNHLSL | < -0.25
NLWVRT | -0.243
NLYVVQATA | < -0.25
NMARGHDAG | < -0.25
NMELTVRVWDSRFKRTEPRY | < -0.25
NMESK | < -0.25
NMGFSRSTQMLAGLAPRK | < -0.25
NMGTQRYRIVIK | < -0.25
NMHDA | < -0.25
NMLPRSGHSRAPILEFW | < -0.25
NMNIRIGAPKNPVIIRSP | < -0.25
NMRYMLEIQFAGVLAVVREA | < -0.25
NMVSRDLAPF | < -0.25
NNFRDVLIFSRFGEYGSDYC | -0.154
NNGSRWRI | < -0.25

Quoted from the listing:
NLTCSLEVLTRDKVDGFFQQ | growth estimate: < -0.25
NLS | growth estimate: -0.238 ± 0.017
NLRADVAPTVKTAWCSRERG | growth estimate: < -0.25
NMELTVRVWDSRFKRTEPRY | growth estimate: < -0.25

Continued.

Substance | growth estimate
NNKLVPVIGLVSGTTTGVLR | < -0.25
NNLPVWFDTSHPIGSRLAPA | < -0.25
NNLRENAADVRPVVGVRLSA | -0.243
NNNRLSPR | < -0.25
NNPSAPQGSGMAATVGTYSS | < -0.25
NNPTVRPARSGMVCG | < -0.25
NNQRVT | < -0.25
NNRKGSRL | < -0.25
NNRMEHIAPQTRGHPEDTTA | < -0.25
NNVRGASLTEGFSHNFW | < -0.25
NNYRYAE | < -0.25
NPAHGRRLQQS | < -0.25
NPALCPAVR | < -0.25
NPDAMSTDSASGCSTDVSYG | < -0.25
NPGSRSANEIEVRDCRAPLT | < -0.25
NPGTISSRGRAHYRPDNSCL | < -0.25
NPGVYTAVGRRTGRTVVLYF | < -0.25
NPHVVENTWGL | < -0.25
NPIR | < -0.25
NPNDRYGQACGVSDREF | < -0.25
NPQRFNTRAHET | < -0.25
NPSPSTVIGGPQRPSQPVRG | < -0.25
NPTGVPYVTVCETSCYLPWW | < -0.25
NPTRVTEVWEGVSVWIVYRP | < -0.25
NQA | < -0.25

Substance | growth estimate
NQACKRDRRKFLVPCPCRSV | < -0.25
NQDAGKSALSSPGKCSRPKG | -0.246
NQITLPELLFLRLKYPRDLP | < -0.25
NQLRTANQYGGCVSMGNRAW | < -0.25
NQPLCHKSTSEVPA | < -0.25
NQRRSRLRMG | < -0.25
NQRRWRQSTSRWHPLIRVVQ | < -0.25
NQSKSPVEC | < -0.25
NQSLAKWIDVDLKFLLRVLR | < -0.25
NQT | < -0.25
NQTAAGYMRPTSSGGIAI | < -0.25
NQVHKVRLATATGNNTASIA | < -0.25
NQYSSVISSLYDRA | < -0.25
NRCLFRRRRFSRSSSRLGDQ | < -0.25
NRCLQFG | < -0.25
NRCPLINRPLWYKTILATRP | < -0.25
NRDRVSGFRAIYERNQAFRY | < -0.25
NRG | < -0.25
NRGQGVLVGLCGFHSGVSN | < -0.25
NRKHGLEVLGAQPVDDVHP | < -0.25
NRLDFLT | < -0.25
NRLLGRRPRCESLSTAPGGK | < -0.25
NRLWFAKSRR | < -0.25
NRMAV | < -0.25
NRNDKTASRRTRSAYTSCDG | < -0.25

Two entries picked at random from those above, as already listed:
Substance | growth estimate
NRG | < -0.25
NQACKRDRRKFLVPCPCRSV | < -0.25

Further results.

Substance | growth estimate
NRPKTSWVKFWDCTRAVASP | < -0.25
NRRADGGASTHTSPLLFQAG | < -0.25
NRRRL | < -0.25
NRRSNGLAAPGRATYAGQSR | < -0.25
NRRWQAIYHVFTGAGRLLRV | < -0.25
NRSG | < -0.25
NRSIRSVWHTT | < -0.25
NRSPSVHQVLPVGCGSSDLP | < -0.25
NRSRVICKRTPI | < -0.25
NRSSLAQESHPYVWCAAFTD | < -0.25
NRTETGHYTG | < -0.25
NRTIHIRD | < -0.25
NRTQFVHCFR | < -0.25
NRTSLGHKGVSTLLNAARFA | < -0.25
NRTWQL | -0.241
NRTYSHASVHISFIWLYITV | < -0.25
NRVNGTAIRTPNRRSHWVRS | < -0.25
NRWRCDLLADTLGASMYFRC | < -0.25
NRYQTSG | < -0.25
NSAGGRTS | < -0.25
NSAVRDVTANTTPYRNGILH | < -0.25
NSDSRVPGSLDCRY | < -0.25
NSGGSRPPTDEASARGNI | < -0.25
